PubChem BioAssay AID652259 – Drosophila RNAi Screening Center, 2013

Assay: 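Identify new Wingless signalling regulators in fly cells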 (primary screen)
System: Drosophila clone 8 imaginal disc epithelial cells
Reagents: long dsRNA against Drosophila genes
Conditions: pathway stimulated by co-transfected Wingless expression plasmid
Measured: 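Dual luciferase reads per well after Wingless plasmid stimulation: reporter firefly light and Renilla control light; activity is firefly divided by Renilla, a ratio not deposited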
Reading the numbers: firefly reporter light: higher = more Wg reporter light, before normalisation; Renilla control light: higher = more transfected or surviving cells
Rule for the call: 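a knock-down is a candidate when at least two out of four statistical tests show it departing from its plate mean; one test alone signals a weak candidate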
Calls: active = candidate regulator (raises or lowers reporter); inactive = not a candidate
In all, the deposit lists about 22,000 reagents; below is a random part of those that have a named target and a result. Of all reagents, 233 (1.1%) were called active. 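Light values are raw, unnormalised plate reads; the ratio scores behind the reporter calls were not deposited.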 A number with no mark means an inactive call. Reagents against one gene are numbered here. Reagent sequences are not shown. The record does not give: the amount of reagent, the time to read-out, the dose of the treatment.

Against spdi #1 the deposit lists firefly reporter light, replicate 1 = 1581; firefly reporter light, replicate 2 = 3585; Renilla control light, replicate 1 = 839; Renilla control light, replicate 2 = 1464.
spdi #2 scored firefly reporter light, replicate 1 = 13277; Renilla control light, replicate 1 = 12433.
Knock-down of CG42246 resulted in: firefly reporter light, replicate 1 = 3978; Renilla control light, replicate 1 = 1290.
Ir75c gave firefly reporter light, replicate 1 = 7755; Renilla control light, replicate 1 = 3659.
Silencing of CG6244 resulted in: firefly reporter light, replicate 1 = 7554; Renilla control light, replicate 1 = 4368.
Pfdn6 showed firefly reporter light, replicate 1 = 15617; Renilla control light, replicate 1 = 5653.
For Taf5 the deposit lists firefly reporter light, replicate 1 = 22013; Renilla control light, replicate 1 = 2893.
With knock-down of wdn, the record shows firefly reporter light, replicate 1 = 2585; firefly reporter light, replicate 2 = 5105; Renilla control light, replicate 1 = 512; Renilla control light, replicate 2 = 1207.
After knock-down of CG5096, the screen gave firefly reporter light, replicate 1 = 2968; firefly reporter light, replicate 2 = 5195; Renilla control light, replicate 1 = 946; Renilla control light, replicate 2 = 2316.
Against CG13026, the entry reads firefly reporter light, replicate 1 = 8819; Renilla control light, replicate 1 = 3837.
Depletion of CG31221 #1 came out at: firefly reporter light, replicate 1 = 14323; Renilla control light, replicate 1 = 3699.
CG31221 #2 showed firefly reporter light, replicate 1 = 17323; Renilla control light, replicate 1 = 3643.
Knock-down of CG14598 came out at: firefly reporter light, replicate 1 = 12080; Renilla control light, replicate 1 = 3453.
Against CG3124 the deposit lists firefly reporter light, replicate 1 = 2278; firefly reporter light, replicate 2 = 3787; Renilla control light, replicate 1 = 251; Renilla control light, replicate 2 = 1111.
Against wat, the values are firefly reporter light, replicate 1 = 8928; Renilla control light, replicate 1 = 3703.
Eno gave firefly reporter light, replicate 1 = 3860; firefly reporter light, replicate 2 = 8562; Renilla control light, replicate 1 = 999; Renilla control light, replicate 2 = 3248.
CG9517 (retired record) #1 scored firefly reporter light, replicate 1 = 24962; Renilla control light, replicate 1 = 10520.
For CG9517 (retired record) #2 the deposit lists firefly reporter light, replicate 1 = 19782; Renilla control light, replicate 1 = 7076.
Against Jhbp16 the deposit lists firefly reporter light, replicate 1 = 35016; Renilla control light, replicate 1 = 5868.
CG13251 gave firefly reporter light, replicate 1 = 11319; Renilla control light, replicate 1 = 4113.
Against Def, the values are firefly reporter light, replicate 1 = 3253; firefly reporter light, replicate 2 = 7872; Renilla control light, replicate 1 = 1201; Renilla control light, replicate 2 = 2856.
With knock-down of CG17751 #1, the record shows firefly reporter light, replicate 1 = 20496; Renilla control light, replicate 1 = 5501.
After knock-down of CG17751 #2 the results were firefly reporter light, replicate 1 = 4.81e5; firefly reporter light, replicate 2 = 5.65e5; Renilla control light, replicate 1 = 2.31e5; Renilla control light, replicate 2 = 2.89e5.
Depletion of PGRP-SB1 resulted in: firefly reporter light, replicate 1 = 5621; Renilla control light, replicate 1 = 2544.
After knock-down of CG1113 the results were firefly reporter light, replicate 1 = 10390; Renilla control light, replicate 1 = 1924.
